From patent US20150050734A1, “Carbon Nanotubes And Methods Of Use” (DUKE UNIVERSITY, priority 2012, published 2015)
At least one structure is not confirmed: it was looked up by name or label, or the drawing left a doubt.

Test system: KCC2
Test: KCC2 immunocytochemistry / densitometry in cultured neurons
Format: cell-based, rat
Details: 20 μM nifedipine
Experimental: Confocal fluorescence imaging was conducted after immunolabeling for β3-tubulin (mouse monoclonal antibody; 1:200, Iowa hybridoma bank, Iowa City, United States), and KCC2 (rabbit polyclonal antibody; Abcam; 1:200). Id.. Fluorescently labeled sections were visualized in a Zeiss LSM710 (Carl Zeiss AG, Oberkochen, Germany) confocal imaging suite with lasers tuned to the […] spectra of the secondary fluorescent antibodies (coupled to Alexa-488 and Alexa-595 dyes), as described previously. Li, J. et al. (2011) Environ Health Perspect 119:784-793.
Morphometry for confocal and light-microscopy acquired images was conducted as previously described. Yeo, M. et al. (2009) J. Neurosci 29:14652-14662.

For `COC(=O)C1=C(C)NC(C)=C(C(=O)OC)C1c1ccccc1[N+](=O)[O-]` [nifedipine], the “effect on KCC2 upregulation” value (Au-matrix cultured neurons) was “abrogated” and the “effect on KCC2 upregulation” value (fwCNT-cultured neurons) was “abrogated”.
